The text below walks through data of publication PMC8242086.

Holding throughout (experiment): co-IP; GFP-tagged proteins immunoprecipitated from 1% Triton X-100 extracts of spheroplasts with monoclonal anti-GFP antibody and protein A Sepharose, room temperature, 4 h; lysis buffer 150 mM NaCl, 10 mM HEPES-KOH pH 7.5, 5 mM MgCl2, 1 mM PMSF; blotted with anti-GFP or anti-Got1p
The target of test [1] is T1, SpVrg4p-GFP A271V (S. pombe) (UniProt Q9UTK8).
T1 sequence: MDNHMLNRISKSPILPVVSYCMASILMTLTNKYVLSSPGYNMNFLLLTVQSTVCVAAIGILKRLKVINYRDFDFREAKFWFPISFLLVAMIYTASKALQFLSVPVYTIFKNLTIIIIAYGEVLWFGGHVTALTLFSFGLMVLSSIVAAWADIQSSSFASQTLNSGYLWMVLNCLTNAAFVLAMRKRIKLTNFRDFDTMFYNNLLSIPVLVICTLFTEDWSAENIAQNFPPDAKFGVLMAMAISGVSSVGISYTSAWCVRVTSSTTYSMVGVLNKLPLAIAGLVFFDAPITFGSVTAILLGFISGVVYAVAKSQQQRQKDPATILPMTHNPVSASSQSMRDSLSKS

Test [2] concerns the target T2, SpVrg4p-GFP S263C A271V double mutant (S. pombe) (UniProt Q9UTK8).
T2 sequence: T1 sequence with S263C

In test [3] the target is T3, SpVrg4p-GFP S263C (S. pombe) (UniProt Q9UTK8).
T3 sequence: T1 sequence with S263C, V271A

Test [4] deals with T4, SpVrg4p-GFP (wild type) (S. pombe) (UniProt Q9UTK8).
T4 sequence: T1 sequence with V271A

Residue numbers refer to the chain shown, from its start. Results are given in words; binding and its absence hold for the method and conditions named. Binding seen in cells or lysates may run through a third protein. Some binding calls cover weakened binding; strength is not graded here. Sequences can lack the tags named with a protein.

B1: Got1p (protein, UniProt Q9USJ2 1-129)
chain: MWLSDLQKIGVGTTALGFLFMIMGIFMFFDGPLLSLGNLLLVFGFFMIAGFSKSVSFFLRKDRMLGSISFFSGLLLTLFHFPIIGFFVECLGFFNLFKVFYPLIISFLRTVPYIGPYIDRLTSYQQSPV
Turning to B1, the binding result is reported as “no binding” in test [1], “no binding” in test [2], “no binding” in test [3] and “binds” in test [4].
